In this assay the target is 5-HT2B (Homo sapiens, UniProt P41595). The format is binding.

Sequences of proteins named here, by UniProt entry; tags and fusion partners are left off.
UniProt P41595, whole entry: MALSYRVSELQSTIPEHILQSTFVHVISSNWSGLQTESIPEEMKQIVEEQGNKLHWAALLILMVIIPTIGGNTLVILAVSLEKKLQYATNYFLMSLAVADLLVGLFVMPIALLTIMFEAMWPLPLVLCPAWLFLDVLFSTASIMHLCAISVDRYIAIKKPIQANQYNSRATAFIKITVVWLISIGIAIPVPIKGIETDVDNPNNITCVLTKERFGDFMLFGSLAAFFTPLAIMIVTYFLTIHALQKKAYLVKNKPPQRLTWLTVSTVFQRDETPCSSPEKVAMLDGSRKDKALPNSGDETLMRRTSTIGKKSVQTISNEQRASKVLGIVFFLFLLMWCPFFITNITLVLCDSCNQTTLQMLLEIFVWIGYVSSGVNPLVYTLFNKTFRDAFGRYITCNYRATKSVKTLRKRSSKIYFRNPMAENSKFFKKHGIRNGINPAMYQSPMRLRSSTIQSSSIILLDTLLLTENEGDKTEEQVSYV

By Ki is commonly meant a dissociation constant, usually derived from enzyme kinetics or from competition with a known ligand. Low values mean tighter binding, high ones weaker binding.

`CC[C@@H](CO)NC(=O)[C@@H]1C=C2c3cccc4c3c(cn4C)C[C@H]2N(C)C1` [M, methysergide, reference compound] came in with a Ki of 19 nM.
